# Assay results: the supplement of paper PMC8256030
# “And” between values parts separate entries of the source, which are not always exact repeats. Identical values can stand only once. This is one part of the list. Repeats in this data set agree poorly, so a single value says little.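 HEK293T cells were given each compound shortly before transfection with a reporter in which red mCherry is followed by the SARS-CoV-2 frameshift element and then GFP in the −1 frame, so GFP appears only after frameshifting.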
# System: SARS-CoV-2 -1 PRF reporter mCherry-FSE-GFP(-1)
# Assay: percent effect, decrease of GFP/mCherry ratio (-1 PRF reporter) relative to controls; higher = stronger frameshift inhibition
# Conditions: 10 µM; 24 h; HEK293T
row,Compound,percent effect
1,COC(=O)C1=C(C)NC(C)=C(C(=O)OC)C1c1ccccc1[N+](=O)[O-] [nifedipine],-2.2% and -5.26%
2,CN1C(CCl)Nc2cc(Cl)c(S(N)(=O)=O)cc2S1(=O)=O (stereo not given) [methyclothiazide],2.15%
3,CC1=C(C(=O)O)N2C(=O)[C@@H](NC(=O)[C@H](N)c3ccccc3)[C@H]2SC1,-3.12%
4,CS(=O)(=O)CCNCc1ccc(-c2ccc3ncnc(Nc4ccc(OCc5cccc(F)c5)c(Cl)c4)c3c2)o1 [lapatinib],-4.96%
5,C[C@H](CCC(=O)O)[C@H]1CC[C@H]2[C@@H]3C(=O)C[C@@H]4CC(=O)CC[C@]4(C)[C@H]3CC(=O)[C@]12C [dehydrocholic acid],-11%
6,CC(Cc1ccccc1)NN (stereo not given) [pheniprazine],-9.62%
7,CCCCCCCCCCCCCCCCCCOP(=O)([O-])OC1CC[N+](C)(C)CC1,-0.204%
8,CCC(C(=O)O)c1ccc(-c2ccccc2)cc1 (stereo not given) [xenbucin],-0.469%
9,N=C(N)NCCC[C@H](N)C(=O)O [arginine],-1.55% and -1.83%
10,N=C(N/N=C/c1ccc(Cl)cc1)N/N=C/c1ccc(Cl)cc1 [robenidine],-4.84%
11,CC(C)NC(=N)NC(=N)Nc1ccc(Cl)cc1,2.31%
12,C[C@@H](O[C@H]1OCCN(Cc2n[nH]c(=O)[nH]2)[C@H]1c1ccc(F)cc1)c1cc(C(F)(F)F)cc(C(F)(F)F)c1 [Aprepitant],-2.35% and -2.85%
13,CC(C)(CO)[C@@H](O)C(=O)NCCC(=O)O [calcium pantothenate],-4.13%
14,COc1nsnc1NS(=O)(=O)c1ccc(N)cc1 [sulfametrole],-0.341%
15,CN1CCN(c2cc3c(cc2F)c(=O)c(C(=O)O)cn3-c2ccc(F)cc2)CC1,-1.79%
16,COc1ccc2c(c1)c(-c1ccccc1)nc(=O)n2CC1CC1 [ciproquazone],-7.1%
17,O=c1cc(CN2CCOCC2)c2ccc(O)cc2o1 [oxazorone],-9.24%
18,CN1CCN(C2=Nc3cc(F)ccc3Cc3ccccc32)CC1 [fluperlapine],-6.23%
19,C#Cc1c[nH]c(=O)[nH]c1=O [eniluracil],1.37%
20,S=C=Nc1ccc(N=C=S)cc1 [bitoscanate],1.84%

row,Compound,percent effect
1,OC(CNC12CC3CC(CC(C3)C1)C2)COc1ccccc1 (stereo not given) [mantabegron],2.06%
2,C[C@H]1[C@H](OC(=O)CCC(=O)O)O[C@@H]2O[C@@]3(C)CC[C@H]4[C@H](C)CC[C@@H]1[C@@]24OO3 [artesunate],-9.99%
3,C=Cc1cc(O)cc2nc(-c3ccc(O)c(F)c3)oc12 [prinaberel],-5.36%
4,Cc1cc(=O)oc2cc(OS(=O)(=O)O)c(OS(=O)(=O)O)cc12 [sulmarin],1.48%
5,CO[C@H]1/C=C/O[C@@]2(C)Oc3c(C)c(O)c4c(O)c(c(/C=N/N5CCN(C)CC5)c(O)c4c3C2=O)NC(=O)/C(C)=C\C=C\[C@H](C)[C@H](O)[C@@H](C)[C@@H](O)[C@@H](C)[C@H](OC(C)=O)[C@@H]1C [Rifampicin],-2.54%
6,CC(C)(N)C(=O)N[C@H](COCc1ccccc1)C(=O)N1CCC2(CC1)CN(S(C)(=O)=O)c1ccccc12 [ibutamoren],-3.49%
7,CCCCc1cc2ccccc2c(OCCN(C)C)n1 [quinisocaine],-9.43%
8,Nc1nc(NC2CC2)c2ncn([C@H]3C=C[C@@H](CO)C3)c2n1 [abacavir],-0.365% and -0.78%
9,CNCC(O)c1ccc(OC(=O)C(C)(C)C)c(OC(=O)C(C)(C)C)c1 (stereo not given) [dipivefrine],-5.69%
10,NC(=O)c1[nH]nc([C@@H]2O[C@H](CO)[C@@H](O)[C@H]2O)c1O [pirazofurin],7.65%
11,CC(C)OC(=O)CCC/C=C\C[C@@H]1[C@@H](/C=C/C(F)(F)COc2ccccc2)[C@H](O)C[C@@H]1O [tafluprost],-4.62%
12,O=S(=O)(O)NC1CCCCC1,12.9%
13,C[C@]12CCC(=O)C=C1C=C[C@@H]1[C@@H]2CC[C@@]2(C)[C@H]1CC[C@@]21CCC(=O)O1,-3.65%
14,CC(C)C[C@H](NC(=O)[C@H](Cc1ccccc1)NC(=O)c1cnccn1)B(O)O [Bortezomib],-7.12%
15,CC/N=C(\NCC)NCCCC[C@H](NC(=O)[C@H](CC(C)C)NC(=O)[C@@H](CCCCN/C(=N/CC)NCC)NC(=O)[C@H](Cc1ccc(O)cc1)NC(=O)[C@H](CO)NC(=O)[C@@H](Cc1cccnc1)NC(=O)[C@@H](Cc1ccc(Cl)cc1)NC(=O)[C@@H](Cc1ccc2ccccc2c1)NC(C)=O)C(=O)N1CCC[C@H]1C(=O)N[C@H](C)C(N)=O [Ganirelix],-6.06%
16,Nc1cc(C(Cl)=C(Cl)Cl)c(S(N)(=O)=O)cc1S(N)(=O)=O [clorsulon],-12%
17,CCCC(=O)OCOC(=O)C1=C(C)NC(C)=C(C(=O)OC)C1c1cccc(Cl)c1Cl (stereo not given) [clevidipine],-2.31%
18,C/C=C\C=C\[C@@H]1O[C@](O)([C@H](CC)C(=O)NC/C=C/C=C(\C)[C@@H](OC)[C@H](C)[C@@H]2O[C@H](/C=C/C=C/C=C(\C)C(=O)c3c(O)cc[nH]c3=O)[C@H](O)[C@@H]2O)[C@H](O)[C@H](O)C1(C)C [mocimycin],-6.01%
19,CC(C)NC(=O)[C@H]1CCC[C@H]1Nc1nc(Nc2ccc(C(=O)N(C)C3CCN(C)CC3)cc2)ncc1Cl,-0.316%
20,CCN(CC)CCOCCOC(=O)C(CC)(CC)c1ccccc1 [oxeladin],-3.38%
